Results are given in words; binding and its absence hold for the method and conditions named. Binding seen in cells or lysates may run through a third protein. Some entries that bind do so weakly or less than the wild type.
How the values were obtained:
[1] = biological target: HA-tagged hSNF5 wildtype (full) (UniProt Q12824); test: co-IP; Flag-RB1CC1 (wt or mutants) and HA-hSNF5 co-transfected into HEK293; lysates in TNE buffer, anti-Flag or anti-HA immobilized beads, 2 h at 4°C; immunoblot (called pull-down assay by the paper)
[2] = biological target: RB1-inducible coiled-coil 1 (RB1CC1), endogenous in MCF-7 cells (human (endogenous in MCF-7)) (UniProt Q8TDY2); test: co-IP; MCF-7 lysate in NP-40 lysis buffer, immunoprecipitated with two kinds of anti-RB1CC1 rabbit polyclonal IgGs or normal control rabbit IgGs at 4°C overnight, protein-G beads; immunoblot

Amino acid sequences for entries named in this document (tags omitted). A change or cut given only in a name is not applied to a line headed by its entry.
UniProt Q12824: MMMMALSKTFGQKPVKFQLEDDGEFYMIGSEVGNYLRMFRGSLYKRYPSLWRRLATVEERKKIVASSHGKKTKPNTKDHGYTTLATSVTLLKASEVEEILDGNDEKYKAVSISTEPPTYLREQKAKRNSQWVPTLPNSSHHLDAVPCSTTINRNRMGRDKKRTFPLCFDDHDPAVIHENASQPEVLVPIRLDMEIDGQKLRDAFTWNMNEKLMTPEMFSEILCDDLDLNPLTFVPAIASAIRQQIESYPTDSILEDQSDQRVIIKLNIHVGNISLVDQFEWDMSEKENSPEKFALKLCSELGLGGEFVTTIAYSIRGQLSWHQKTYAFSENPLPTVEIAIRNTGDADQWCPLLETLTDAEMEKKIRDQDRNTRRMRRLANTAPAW
UniProt Q8TDY2: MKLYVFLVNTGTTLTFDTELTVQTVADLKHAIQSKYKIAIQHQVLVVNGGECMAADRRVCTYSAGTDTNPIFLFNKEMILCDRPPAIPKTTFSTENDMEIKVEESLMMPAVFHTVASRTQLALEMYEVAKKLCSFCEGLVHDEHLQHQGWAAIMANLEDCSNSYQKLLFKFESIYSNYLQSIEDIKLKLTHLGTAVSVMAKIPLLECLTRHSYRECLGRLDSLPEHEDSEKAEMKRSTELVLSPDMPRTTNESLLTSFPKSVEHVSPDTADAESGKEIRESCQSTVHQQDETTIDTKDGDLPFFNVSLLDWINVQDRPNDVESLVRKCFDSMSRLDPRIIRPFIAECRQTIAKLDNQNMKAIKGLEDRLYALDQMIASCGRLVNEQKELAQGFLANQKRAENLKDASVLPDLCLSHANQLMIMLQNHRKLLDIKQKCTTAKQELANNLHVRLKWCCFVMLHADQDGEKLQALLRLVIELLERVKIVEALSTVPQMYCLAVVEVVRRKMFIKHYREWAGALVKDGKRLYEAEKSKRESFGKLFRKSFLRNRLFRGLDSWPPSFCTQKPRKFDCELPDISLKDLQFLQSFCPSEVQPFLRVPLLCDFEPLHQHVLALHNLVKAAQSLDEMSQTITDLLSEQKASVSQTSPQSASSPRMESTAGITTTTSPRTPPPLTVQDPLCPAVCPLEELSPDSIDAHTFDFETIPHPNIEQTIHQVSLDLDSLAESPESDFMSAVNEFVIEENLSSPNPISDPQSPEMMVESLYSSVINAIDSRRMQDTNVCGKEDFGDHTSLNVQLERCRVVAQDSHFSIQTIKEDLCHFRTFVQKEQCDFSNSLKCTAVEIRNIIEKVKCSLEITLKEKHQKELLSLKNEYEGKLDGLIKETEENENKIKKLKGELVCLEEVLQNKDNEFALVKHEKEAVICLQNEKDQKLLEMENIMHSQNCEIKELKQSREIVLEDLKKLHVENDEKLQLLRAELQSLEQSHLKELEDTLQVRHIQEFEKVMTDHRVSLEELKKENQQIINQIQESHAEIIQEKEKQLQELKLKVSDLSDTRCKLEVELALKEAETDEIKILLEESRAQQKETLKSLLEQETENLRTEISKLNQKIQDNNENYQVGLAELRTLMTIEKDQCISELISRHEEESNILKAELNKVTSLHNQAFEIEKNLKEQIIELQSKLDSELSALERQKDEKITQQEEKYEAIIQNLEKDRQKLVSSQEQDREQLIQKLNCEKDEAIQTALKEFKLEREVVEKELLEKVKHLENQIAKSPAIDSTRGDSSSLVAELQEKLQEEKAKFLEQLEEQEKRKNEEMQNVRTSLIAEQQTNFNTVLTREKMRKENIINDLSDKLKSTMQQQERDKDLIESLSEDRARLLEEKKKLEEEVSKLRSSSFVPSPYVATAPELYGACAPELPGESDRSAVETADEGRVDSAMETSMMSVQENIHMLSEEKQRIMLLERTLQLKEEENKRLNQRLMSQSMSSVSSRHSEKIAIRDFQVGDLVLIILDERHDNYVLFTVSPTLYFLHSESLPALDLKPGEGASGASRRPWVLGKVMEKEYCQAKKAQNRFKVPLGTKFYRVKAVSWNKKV

binding [1] | binding [2] | Substance
binds | – | Flag-tagged wildtype RB1CC1 (from UniProt Q8TDY2-1 1-1594)
– | binds | hSNF5, endogenous in MCF-7 cells (from UniProt Q12824 1-385)
